The list shows a part of the results, in another mix than the full data. At the low end of the ranking, values are background and their order means little.

Sequences of proteins named here, by UniProt entry; tags and fusion partners are left off. A change or cut given only in a name is not applied to a line headed by its entry.
UniProt O43186: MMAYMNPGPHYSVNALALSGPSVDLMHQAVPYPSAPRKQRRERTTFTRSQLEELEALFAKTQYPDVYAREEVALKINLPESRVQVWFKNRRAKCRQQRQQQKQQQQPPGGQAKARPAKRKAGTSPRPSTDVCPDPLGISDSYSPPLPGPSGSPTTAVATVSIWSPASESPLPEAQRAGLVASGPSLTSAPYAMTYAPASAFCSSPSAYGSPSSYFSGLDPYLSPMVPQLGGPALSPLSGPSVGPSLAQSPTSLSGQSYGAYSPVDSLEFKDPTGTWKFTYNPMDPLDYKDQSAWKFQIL

The assay deals with CRX (UniProt O43186). The experiment in a line: DAPPL (digital affinity profiling via proximity ligation, sequencing). The settings on record: 10 mM Tris-HCl pH 7.5, 50 mM NaCl, 1 mM DTT, 4% glycerol, room temperature, 30 min; GST-TFs on glutathione beads, 16-mer random dsDNA library, 0.1% …; high values mean tight binding; double strand, one strand shown; scale: fold enrichment (6-mer frequency, TF over GST control).
The sequence GCATTC returned a binding signal of 0.913. In turn, GTGCTC showed a binding signal of 0.935. CATCTT showed a binding signal of 1.33.

TACTTT had a binding signal of 1.71.

Sequence TTGGGT gave a binding signal of 1.07.

In turn, TAATCT came in with a binding signal of 5.78. The sequence TGTAGC returned a binding signal of 0.969.

For the sequence GATATC, the binding signal worked out at 1.02. In the case of TGCTAA, the binding signal was determined as 1.8. The result for AACCAT reads 1.05; that for CAATTG, 0.97. The result for CGATAC reads 0.98; that for TTTATG, 1.74. The result for CCCGCC reads 1.21; that for GATGAA, 1.22.

Regarding TACCCA, the binding signal worked out at 1.08. The result for CTTTCT reads 1.76; that for TCGATC, 1.23. On to TGCTGC, for which the binding signal was 0.949.

As for ATATGA, the binding signal was found to be 1.02.

The sequence CCTACG registered a binding signal of 1.11.

ACGAAC returned a binding signal of 0.941.

For CTAATC, the binding signal stood at 5.33. In the case of GACCTG, the binding signal is 0.933. CTTTCC had a binding signal of 1.54. For CCTTGG, the binding signal amounted to 1.09. TCGTAC registered a binding signal of 0.958. Turning to TCGCGC, the binding signal stood at 0.949. Sequence GCCGAC gave a binding signal of 0.91. With ATTAGC, the binding signal came to 2.83. For ATCATG the value was 1.21; for TTATTT, 2.43; for TTCTCC, 1.51. ATGGTT: the binding signal amounted to 1.17.

For the sequence CCATAT, the binding signal worked out at 1.09. The result for ACTCGC reads 0.955. Sequence ATCTCC gave a binding signal of 2.01.

For CTTTTA, the binding signal was determined as 1.61. For GCTTAT the value was 2.89.

The values above are taken from paper PMC7862700.
